Experimental data as given in PubChem BioAssay AID587 (National Center for Advancing Translational Sciences (NCATS), 2007).
Among all 59,000 compounds or so, about 35 (0.06%) were called active. Inconclusive results, whose numbers are uncertain, are shown with a selection of clear calls. No stated cut-off is given here; in the data, active means max dye-equivalent concentration above about 10 nM; inconclusive means between about 1.1 nM and that limit; inactive means weaker than that.

assay: qHTS Assay for Spectroscopic Profiling in Texas Red Spectral Region; details: Compound fluorescence, Texas Red channel, 547/618 nm; stronger effect = higher value
How it was run: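 Fluorescence at ex 547/em 618 nm, normalized against an on-plate Texas Red standard series to give dye-equivalent concentration per compound concentration. Buffer 100 mM Tris, pH 8.0; 15 min RT incubation before CCD imaging.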

Structure (SMILES) | max dye-equivalent concentration | outcome
Cc1ccc2[nH]c3c(N4CCOCC4)ncnc3c2c1 | inconclusive: 1.1 nM | 
CCOc1ccc2ccccc2c1/C=N/n1cncn1 | inconclusive: 1.3 nM | 
N#CC1=C(N)S[C@H](C(=O)C23CC4CC(CC(C4)C2)C3)[C@H]1c1ccncc1 | inconclusive: 1.4 nM | 
OCCCSCCO | inconclusive: 1.1 nM | 
Cn1c(=O)c2c(nc(Br)n2CCSc2nnnn2-c2ccccc2)n(C)c1=O | inconclusive: 1.1 nM | 
CCOC(=O)N1CCN(C(=O)C(NC(=O)C2CCC(C)CC2)C(C)C)CC1 (stereo not given) | inconclusive: 1.4 nM | 
COC(=O)C1CCN(C(=O)CN2C(=O)NC(CCc3ccccc3)C2=O)CC1 (stereo not given) | inconclusive: 1.5 nM | 
Cn1c(CN2CCC(C(N)=O)CC2)c(C#N)c2ccccc21 | inconclusive: 1.2 nM | 
CCc1nnc(NC(=O)CSc2nnc(-c3ccccc3OC)n2-c2ccccc2)s1 | inconclusive: 1.4 nM | 
COc1ccc(-c2nc3cnc(Oc4ccccc4)nc3n(Cc3cccs3)c2=O)cc1 | inactive | 
c1ccc(/C(=N/Nc2nc3ccccc3s2)c2ccccn2)cc1 | inactive | 
Cc1cc(C)n(-c2cccc(Cl)c2)c(=O)c1C#N | inconclusive: 1.1 nM | 
COc1cccc(C2CC(c3c(F)cccc3Cl)n3nc(N)nc3N2)c1 (stereo not given) | inconclusive: 2.5 nM | 
O=C(O)C1CCCN1c1ncccn1 (stereo not given) | inconclusive: 1.8 nM | 
COc1cccc(/C=C/c2ccncc2)c1OC | inactive | 
CCn1c(SCC(=O)OC(C)C)nnc1-c1cccc(Cl)c1 | inconclusive: 1.8 nM | 
COc1cc2c(cc1OC)-c1cc(=Nc3c(C)cc(C)cc3C)n(C)c(=O)n1CC2 | inactive | 
N#CCCn1c(=O)c(-c2cccs2)nc2cnc(N3CCOCC3)nc21 | inactive | 
CC(=O)C1=C(C)OC(N)=C(C#N)C1c1ccco1 (stereo not given) | inactive | 
COCCCNC(=O)c1ccc(N(C)S(=O)(=O)c2ccc(OC)cc2)cc1 | inconclusive: 1.6 nM | 
Cc1nc2cnc(Nc3ccccc3)nc2n(Cc2ccc(F)cc2)c1=O | inactive | 
CCCCCCNC(=O)C(C#N)c1nc2ccccc2nc1N1CCOCC1 (stereo not given) | inactive | 
COc1ccc(CC[N@+]2(C)COc3cc4oc(=O)cc(C)c4cc3C2)cc1OC | inactive | 

Structure (SMILES) | max dye-equivalent concentration | outcome
O=C(Nc1ccccn1)c1ccc2ccccc2n1 | inconclusive: 1.6 nM | 
Cc1ccc(Cn2ccc(NC(=O)c3noc4c3CCCC4)n2)cc1 | inconclusive: 1.7 nM | 
Cc1ccc(S(=O)(=O)N(CC(=O)N2CCOCC2)CC(=O)N2CCOCC2)cc1 | inconclusive: 1.1 nM | 
N#Cc1cn(CCOc2ccccc2F)c2ccccc12 | inconclusive: 1.3 nM | 
Cc1nn(C(=O)c2cc3sccc3[nH]2)c(C)c1C | inconclusive: 1.6 nM | 
CCNc1nc(SCCOc2ccccc2)nc(N(C)C)n1 | inconclusive: 1.8 nM | 
CCOC(=O)c1cc(-c2ccc(F)cc2)n(CC(=O)N2CCCC2)c1C | inconclusive: 2.3 nM | 
O=C(CN1CCCCC1)Nc1cccc(Cl)c1Cl | inconclusive: 1.3 nM | 
N#C/C(C(=O)Oc1ccccc1)=C1\C=CC=CN1 | inconclusive: 1.3 nM | 
Cc1ccc(CNC(=O)c2ccccc2NC(=O)CSc2nnnn2C)cc1 | inconclusive: 1.2 nM | 
O=C(CSc1nc(N2CCCCC2)nc(N2CCCCC2)n1)NC1CCCCC1 | inconclusive: 1.3 nM | 
COc1cc2c(cc1OC)CN(Cc1cc(=O)n3cc(C)ccc3n1)CC2 | inconclusive: 1.1 nM | 
Cc1ccc2c(c1)nnn2C1CCN(S(=O)(=O)c2ccc(C(=O)N(C)C3CCCCC3)cc2)CC1 | inconclusive: 1.5 nM | 
O=C(c1ccco1)N1CCN(c2nc3ccccc3n3nnnc23)CC1 | inconclusive: 1.3 nM | 
CCn1cc(C(=O)O)c(=O)c2cnc(N3CCN(C(=O)Nc4ccccc4)CC3)nc21 | inconclusive: 1.1 nM | 
O=C(O)c1cccc2[nH]c(C(F)(F)F)nc12 | inconclusive: 1.2 nM | 
CCOC(=O)Cn1nc(-c2ccccc2)nc1-c1ccccc1 | inconclusive: 1.3 nM | 
CCOc1ccccc1Nc1nc2ccccc2[nH]1 | inconclusive: 2.7 nM | 
COCCN(CCOC)C(=O)c1c[nH]c2ccc(S(=O)(=O)N(C)c3ccc(F)cc3)cc2c1=O | inactive | 
COc1ccccc1-c1nnc(Nc2nc3c(OC)cccc3s2)o1 | inconclusive: 1.1 nM | 
CCCCN1CCC(COC(=O)c2cc(Cl)c(N)c3c2OCCO3)CC1 | inconclusive: 1.1 nM | 
CCN(CC)c1ccc2c(Cl)c(Br)c(=O)oc2c1 | inactive | 
Cc1cc(N2CCCCC2)n2ncc(-c3ccccc3)c2n1 | inconclusive: 1.3 nM | 

Structure (SMILES) | max dye-equivalent concentration | outcome
Nc1nc(-c2ccc(Cl)cc2)nn1C(=O)c1cccnc1 | inconclusive: 1.6 nM | 
Nc1ccc(-c2cnc(-c3ccc(N)cc3)nc2)cc1 | inconclusive: 1.9 nM | 
COC(=O)c1ccc(C(=O)OC)c(NC(=O)CN2CCN(c3ccccc3OC)CC2)c1 | inconclusive: 3.3 nM | 
CC(=O)Nc1ccc(OCC(O)Cn2nc(C)c(C(C)=O)c2C)cc1 (stereo not given) | inconclusive: 1.3 nM | 
COc1ccc(CCn2c(N3CCN(Cc4ccccc4)CC3)nc3c2c(=O)[nH]c(=O)n3C)cc1 | inconclusive: 1.2 nM | 
CCOC(=O)CSC1=C(C#N)C(c2ccccc2OCC)C(C#N)C(=O)N1 (stereo not given) | inconclusive: 1.2 nM | 
O=S(=O)(N1CCOCC1)n1nnc2ccccc21 | inconclusive: 1.6 nM | 
Cc1ccc(C(=O)NC2CCS(=O)(=O)C2)cc1S(=O)(=O)N1CCOCC1 (stereo not given) | inconclusive: 1.2 nM | 
CS(=O)(=O)N1CCC2(CCCN(C(c3ccccc3)c3ccccc3)C2)CC1 | inactive | 
CCN1CCC[C@H]1CNC(=O)c1c(OC)ccc(Br)c1OC | inconclusive: 1.9 nM | 
Cn1c(=O)[nH]c(=O)c2c1nc(N1CCCC1)n2CCCSc1nc2ccccc2o1 | inconclusive: 1.1 nM | 
CC(C)(C)OC(=O)N1CCC[C@H]1c1nnc(SC/C=C/c2ccccc2)o1 | inconclusive: 1.8 nM | 
O=C(NCCN1CCOCC1)c1ccncc1 | inconclusive: 1.1 nM | 
O=C(Nc1ccccc1)N1CCCC2(CCN(C(=O)c3cc(C(F)(F)F)cc(C(F)(F)F)c3)CC2)C1 | inactive | 
CN(C)c1ccc(/C=C2/C(=O)Nc3ccccc32)cc1 | inconclusive: 1.5 nM | 
CCN(C(=O)CN1CCN(C)CC1)c1cccc2ccccc12 | inconclusive: 1.6 nM | 
COc1ccc(-n2cnnc2SCC(=O)c2cc(C)n(Cc3cccs3)c2C)cc1 | inconclusive: 1.1 nM | 
CC1CCCC(C)N1C(=O)CSc1nnc(C2CCCCC2)o1 (stereo not given) | inconclusive: 1.3 nM | 
CC1Cc2ccccc2N1C(=O)Cn1nnc(-c2ccccc2NC(=O)C2CCC2)n1 (stereo not given) | inconclusive: 2.7 nM | 
Cc1cc(=O)n2nc(-c3ccccc3)sc2c1C#N | inconclusive: 1.4 nM | 
Cc1nc2c(c(=O)n1CCC(C)C)c1nc3ccccc3nc1n2Cc1ccc2c(c1)OCO2 | inconclusive: 1.8 nM | 
S=c1[nH]nc(-c2ccccc2)n1Cc1ccccc1 | inconclusive: 1.1 nM | 
Cc1cc(OCc2nc(N)nc(N)c2-c2ccc(Cl)c(Cl)c2)ccc1[N+](=O)[O-] | inactive | 

In the list so far, these contain a furan ring, fused or not.
Structure (SMILES) | max dye-equivalent concentration | outcome
CC(=O)C1=C(C)OC(N)=C(C#N)C1c1ccco1 (stereo not given) | inactive | 
O=C(c1ccco1)N1CCN(c2nc3ccccc3n3nnnc23)CC1 | inconclusive: 1.3 nM | 

Gathered by group, the compounds so far containing a CF3 group.
Structure (SMILES) | max dye-equivalent concentration | outcome
O=C(O)c1cccc2[nH]c(C(F)(F)F)nc12 | inconclusive: 1.2 nM | 
O=C(Nc1ccccc1)N1CCCC2(CCN(C(=O)c3cc(C(F)(F)F)cc(C(F)(F)F)c3)CC2)C1 | inactive | 

Following part.

Structure (SMILES) | max dye-equivalent concentration | outcome
Cc1nnc(NS(=O)(=O)c2ccc(N)cc2)s1 | inconclusive: 1.4 nM | 
Cc1cc(NC(=O)c2cnn3c(C(F)F)cc(C4CC4)nc23)no1 | inconclusive: 1.8 nM | 
CCc1nc2oc3cc(OC)ccc3c(=O)c2c(=O)n1Cc1ccco1 | inconclusive: 1.1 nM | 
O=C(COc1ccccc1)Nc1ccc2c(c1)nc1n2CCOC1 | inconclusive: 1.2 nM | 
NC(=O)C1CCN(C(=O)C23CC4CC(CC(C4)C2)C3)CC1 | inconclusive: 1.2 nM | 
O=C(O)[C@H]1CCCC[C@@H]1c1c2ccc(=O)c(O)c-2oc2c(O)c(O)ccc12 | inactive | 
CCCc1nc2oc3c(NCCN4CCOCC4)ncnc3c2c2c1CCCC2 | inconclusive: 1.1 nM | 
COc1ccc2c(OC)c3ccoc3nc2c1OC | inconclusive: 2.2 nM | inactive
O=C(O)C(c1ccccc1)C1(O)CCCC1 (stereo not given) | inconclusive: 2.8 nM | 
CC(C)(CCC(C)(C)c1ccccc1)c1ccccc1 | inactive | 
CC(C)(C)c1ccc(-c2conc2N)cc1 | inconclusive: 1.7 nM | 
CC(=O)c1sc(NC(=O)C2(F)C(F)(F)C(F)(F)C(F)(F)C(F)(F)C2(F)F)nc1C | inconclusive: 1.6 nM | 
O=C(CN(C(=O)C1CSC(=O)C1)c1ccccc1F)NCc1ccc2c(c1)OCO2 (stereo not given) | inconclusive: 1.2 nM | 
CCOc1ccc(Br)cc1S(=O)(=O)Nc1ccccc1N1CCOCC1 | inconclusive: 1.1 nM | 
COc1ccc2c(CC(=O)Nc3nnc(C4CC4)s3)coc2c1 | inconclusive: 1.6 nM | 
Cc1csc(NC(=O)CCn2c(=O)oc3ccccc32)n1 | inconclusive: 1.1 nM | 
Cc1[nH]n(CCC#N)c(=O)c1CC(=O)N1CCN(c2ccccc2)CC1 | inconclusive: 1.1 nM | 
CCOc1cc(C(N)=O)cc(OCC)c1OCC | inconclusive: 1.7 nM | 
COc1cccc(C(=O)CSc2nnc(CNS(=O)(=O)c3ccc(C)cc3)n2C)c1 | inconclusive: 1.2 nM | 
Cc1cc(CNC(=O)c2cc(Br)ccc2Cl)nn1C | inconclusive: 1.5 nM | 
